Assay results: US20260258125A1
These are yes or no findings as the source states them, for the method shown.

Molecular target: cyno CEACAM5 protein (cynomolgus monkey)
Test: ELISA, antigen coated on plate

binding: no binding
B1: PR303563 (Tinurilimab) (antibody, human IgG2, kappa, V domains shown)
VH: QVTLRESGPALVKPTQTLTLTCTFSGFSLSTYGIGVGWIRQPPGKALEWLAHIWWNDNKYYSTSLKTRLTISKDTSKNQVVLTMTNMDPVDTATYYCARISLPYFDYWGQGTTLTVSS
VL: DIQLTQSPSFLSASVGDRVTITCKASQNVGTAVAWYQQKPGKAPKLLIYSASNRYTGVPSRFSGSGSGTEFTLTISSLQPEDFATYYCQQYSSYPLTFGGGTKVEIKR
